Counter-ions that a name gives are not always drawn. The list shows a part of the results. Single values are uncertain, as repeats are few or missing.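 Labelled rat cortical synaptosomes were engulfed by primary human fetal astrocytes. Engulfment equaled a red/green ratio, corrected for calcein live-cell signal and normalized to the plate median. Compounds were toxic when calcein dropped over 30%, and reduced phagocytosis when below 70% of the median above 5 µM.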
System: Human fetal astrocytes
Test: loss of total cells relative to no-compound high-control median (toxicity); higher = more toxic (fewer cells)
Conditions: 5.56 µM; 24 h

Compound | loss of total cells [%]
O=C(OOC(=O)c1ccccc1)c1ccccc1 | -9.3
Cn1c(=O)c2nc(C3CCCC3)[nH]c2n(C)c1=O | 10.1
CCN1CCCC(OC(=O)C(c2ccccc2)c2ccccc2)C1 (stereo not drawn) | 9.9
COC(=O)C[C@H]1C(C)(C)[C@@H](O)[C@@H]2CC3=C4C=C(OC)O[C@@H](c5ccoc5)[C@]4(C)CCC3[C@@]1(C)C2=O (stereo partly drawn) [3-DEOXO-3beta-HYDROXYMEXICANOLIDE 16-ENOL ETHER] | 26.7
CC1(C)CC[C@]2(C(=O)O)CC[C@]3(C)C(=CC[C@@H]4[C@@]5(C)CC[C@H](O)C(C)(C)[C@@H]5CC[C@]43C)[C@@H]2C1 | 30.5
Cc1onc(-c2ccccc2Cl)c1C(=O)N[C@@H]1C(=O)N2[C@@H]1SC(C)(C)[C@@H]2C(=O)O | 4.9
O=C(O[C@H]1CN2CCC1CC2)N1CCc2ccccc2[C@@H]1c1ccccc1 | -0.6
CC[C@H]1C(=O)OC[C@@H]1Cc1cncn1C | 12.5
CC1=C2C(=CO[C@H](C)[C@H]2C)C(=O)C(C(=O)O)=C1O | 1.5
COc1cc(OC)c2c(=O)c(OC)c(-c3ccc(OC)c(OC)c3)oc2c1 | 5.1
CCCCCCCCCc1ccc(OCCOCCOCCOCCOCCOCCOCCOCCOCCO)cc1 | -0.8
CC(=O)OC(C)(C)[C@@H]1Cc2cc3ccc(=O)oc3cc2O1 | 11
C[C@@H]1CC[C@H]2C(C)(C)[C@H]3C[C@@]12CC[C@@]3(C)O | 15.9
CCN(CC)CCOCCOC(=O)C(CC)(CC)c1ccccc1 | 18.8
CN(C)c1ccc2nc3ccc(=[N+](C)C)cc-3sc2c1 | 12.4
O=C1C(=O)c2ccccc2C(O)=C1C1CCC(c2ccc(Cl)cc2)CC1 (stereo not drawn) | 12.4
NC(Cc1ccc(F)cc1)C(=O)O (stereo not drawn) | 24.6
O=c1oc2c(O)c(O)cc3c(=O)oc4c(O)c(O)cc1c4c23 | 26.8
CCOC(=O)CCC(=O)O[C@H]1[C@H](O[C@@H]2[C@@H](C)[C@H](O[C@H]3C[C@@](C)(OC)[C@@H](O)[C@H](C)O3)[C@@H](C)C(=O)O[C@H](CC)[C@@](C)(O)[C@H](O)[C@@H](C)C(=O)[C@H](C)C[C@@]2(C)O)O[C@H](C)C[C@@H]1N(C)C | -2.1
C=CC(N)CCC(=O)O (racemic) [(±)-gamma-Vinyl GABA] | -6.3
Nc1nc(=O)c2[nH]c(=O)cnc2[nH]1 | -23.4
O=C(O)CCNC(=O)c1ccccc1 | 15.2
C=C1c2c(Cl)ccc(O)c2C(O)=C2C(=O)[C@]3(O)C(O)=C(C(N)=O)C(=O)[C@@H](N(C)C)[C@@H]3[C@@H](O)[C@H]12.O=C(O)c1cc(S(=O)(=O)O)ccc1O | -2.1

Same assay, conditions: 11.11 µM; 24 h

Compound | loss of total cells [%]
CC(C)C[C@@H]1NC(=O)[C@H](CCCN)NC(=O)[C@H](C(C)C)NC(=O)[C@H](Cc2ccc(O)cc2)N[C@@H](CCC(=O)O)C(=O)N[C@@H](CC(N)=O)C(=O)[C@@H](Cc2ccccc2)NC(=O)[C@H](Cc2ccccc2)NC(=O)[C@@H]2CCCN2C(=O)[C@@H](Cc2ccccc2)NC1=O | 96.5
C[N+](C)(C)CC(O)CC(=O)[O-] (stereo not drawn) | -2.9
CC(=O)OCC(=O)[C@@]1(O)CC[C@H]2[C@@H]3CCC4=CC(=O)CC[C@]4(C)[C@H]3[C@@H](O)C[C@@]21C | 10.1
CCCN(CCC)S(=O)(=O)c1ccc(C(=O)O)cc1 | -11.8
CC(N)C12CC3CC(CC(C3)C1)C2 (stereo not drawn) | -1.6
CON | 5.4
Cn1c2ncnc-2c(O)n(C)c1=O | -0.4
CC(COc1ccccc1)NC(C)C(O)c1ccc(O)cc1 (stereo not drawn) | 2.6
CN(C)CCCO[C@@H]1[C@H]2OC(C)(C)O[C@H]2O[C@@H]1[C@H](O)CO | 12.1
CS(=O)(=O)c1ccc([C@@H](O)[C@@H](CO)NC(=O)C(Cl)Cl)cc1 | 44.3
C/C=N/N(C)C=O | 12.1
C1CNCCN1 | -13
NNC(=O)c1ccncc1.Nc1ccc(C(=O)O)c(O)c1 | 23.8
CC(C)NCC(O)c1cc(O)cc(O)c1 (stereo not drawn) | -10.2
O=C(/C=C/c1ccccc1)c1ccc(O[C@@H]2O[C@H](CO)[C@@H](O)[C@H](O)[C@H]2O)cc1O | 0.6
CCN(CC)CCCC(C)Nc1c2ccc(Cl)cc2nc2ccc(OC)cc12 (stereo not drawn) [Quinacrine dihydrochloride] | 31.4
CCN1CCCC1CNC(=O)c1cc(S(N)(=O)=O)ccc1OC (stereo not drawn) | 14.8
O=C(OOC(=O)c1ccccc1)c1ccccc1 | -22
Cn1c(=O)c2nc(C3CCCC3)[nH]c2n(C)c1=O | -4.6
CCN1CCCC(OC(=O)C(c2ccccc2)c2ccccc2)C1 (stereo not drawn) | -3

Compound | loss of total cells [%]
COC(=O)C[C@H]1C(C)(C)[C@@H](O)[C@@H]2CC3=C4C=C(OC)O[C@@H](c5ccoc5)[C@]4(C)CCC3[C@@]1(C)C2=O (stereo partly drawn) [3-DEOXO-3beta-HYDROXYMEXICANOLIDE 16-ENOL ETHER] | -1.9
CC1(C)CC[C@]2(C(=O)O)CC[C@]3(C)C(=CC[C@@H]4[C@@]5(C)CC[C@H](O)C(C)(C)[C@@H]5CC[C@]43C)[C@@H]2C1 | 45.8
Cc1onc(-c2ccccc2Cl)c1C(=O)N[C@@H]1C(=O)N2[C@@H]1SC(C)(C)[C@@H]2C(=O)O | -8.9
O=C(O[C@H]1CN2CCC1CC2)N1CCc2ccccc2[C@@H]1c1ccccc1 | 17.4
CC[C@H]1C(=O)OC[C@@H]1Cc1cncn1C | 10.1
CC1=C2C(=CO[C@H](C)[C@H]2C)C(=O)C(C(=O)O)=C1O | 21.9
COc1cc(OC)c2c(=O)c(OC)c(-c3ccc(OC)c(OC)c3)oc2c1 | 5.4
CCCCCCCCCc1ccc(OCCOCCOCCOCCOCCOCCOCCOCCOCCO)cc1 | 26.5
CC(=O)OC(C)(C)[C@@H]1Cc2cc3ccc(=O)oc3cc2O1 | 8.8
C[C@@H]1CC[C@H]2C(C)(C)[C@H]3C[C@@]12CC[C@@]3(C)O | 12.1
CCN(CC)CCOCCOC(=O)C(CC)(CC)c1ccccc1 | 8.8
CN(C)c1ccc2nc3ccc(=[N+](C)C)cc-3sc2c1 | 14.8
O=C1C(=O)c2ccccc2C(O)=C1C1CCC(c2ccc(Cl)cc2)CC1 (stereo not drawn) | -12.1
NC(Cc1ccc(F)cc1)C(=O)O (stereo not drawn) | -16.3
O=c1oc2c(O)c(O)cc3c(=O)oc4c(O)c(O)cc1c4c23 | 7.9
CCOC(=O)CCC(=O)O[C@H]1[C@H](O[C@@H]2[C@@H](C)[C@H](O[C@H]3C[C@@](C)(OC)[C@@H](O)[C@H](C)O3)[C@@H](C)C(=O)O[C@H](CC)[C@@](C)(O)[C@H](O)[C@@H](C)C(=O)[C@H](C)C[C@@]2(C)O)O[C@H](C)C[C@@H]1N(C)C | 5.5
C=CC(N)CCC(=O)O (racemic) [(±)-gamma-Vinyl GABA] | -10.9
Nc1nc(=O)c2[nH]c(=O)cnc2[nH]1 | 14.9
O=C(O)CCNC(=O)c1ccccc1 | 18.8
C=C1c2c(Cl)ccc(O)c2C(O)=C2C(=O)[C@]3(O)C(O)=C(C(N)=O)C(=O)[C@@H](N(C)C)[C@@H]3[C@@H](O)[C@H]12.O=C(O)c1cc(S(=O)(=O)O)ccc1O | 23.4
